These are yes or no findings as the source states them, for the method shown. In cells and extracts the contact can be indirect. These calls come from enrichment with a bait or labelling near it, and not all partners need be listed.
Molecular target: PSMA8 (testis-specific α4s subunit of the spermatoproteasome) (mouse (endogenous in testis)) (UniProt Q9CWH6)
Assay: affinity purification with mass spectrometry

Sequences of proteins named here, by UniProt entry; tags and fusion partners are left off.
UniProt Q9CWH6: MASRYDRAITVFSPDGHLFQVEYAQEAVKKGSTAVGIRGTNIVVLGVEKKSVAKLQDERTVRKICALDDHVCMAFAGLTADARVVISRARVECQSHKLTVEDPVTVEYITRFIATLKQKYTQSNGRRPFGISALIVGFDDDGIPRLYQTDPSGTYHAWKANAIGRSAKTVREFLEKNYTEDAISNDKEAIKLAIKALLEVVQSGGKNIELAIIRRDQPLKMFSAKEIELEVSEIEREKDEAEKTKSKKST

binding: binds
B1: CAND1 (protein, UniProt Q6ZQ38 1-1230)
chain: MASASYHISNLLEKMTSSDKDFRFMATNDLMTELQKDSIKLDDDSERKVVKMILRLLEDKNGEVQNLAVKCLGPLVSKVKEYQVETIVDTLCTNMLSDKEQLRDISSIGLKTVIGELPPASSGSALAANVCKKITGRLTSAIAKQEDVSVQLEALDIMADMLSRQGGLLVNFHPSILTCLLPQLTSPRLAVRKRTIIALGHLVMSCGNIVFVDLIEHLLSELSKNDSMSTTRTYIQCIAAISRQAGHRIGEYLEKIIPLVVKFCNVDDDELREYCIQAFESFVRRCPKEVYPHVSTIINICLKYLTYDPNYNYDDEDEDENAMDADGGDDDDQGSDDEYSDDDDMSWKVRRAAAKCLDAVVSTRHEMLPEFYKTVSPALIARFKEREENVKADVFHAYLSLLKQTRPVQSWLCDPDAMEQGDTPLTMLQSQVPNIVKALHKQMKEKSVKTRQCCFNMLTELVNVLPGALTQHIPVLVPGIIFSLNDKSSSSNLKIDALSCLYVILCNHSPQVFHPHVQALVPPVVACVGDPFYKITSEALLVTQQLVKVIRPLDQPSSFDATPYIKDLFTCTIKRLKAADIDQEVKERAISCMGQIICNLGDNLGPDLSNTLQIFLERLKNEITRLTTVKALTLIAGSPLKIDLRPVLGEGVPILASFLRKNQRALKLGTLSALDILIKNYSDSLTAAMIDAVLDELPPLISESDMHVSQMAISFLTTLAKVYPSSLSKISGSILNELIGLVRSPLLQGGALSAMLDFFQALVVTGTNNLGYMDLLRMLTGPVYSQSTALTHKQSYYSIAKCVAALTRACPKEGPAVVGQFIQDVKNSRSTDSIRLLALLSLGEVGHHIDLSGQLELKSVILEAFSSPSEEVKSAASYALGSISVGNLPEYLPFVLQEITSQPKRQYLLLHSLKEIISSASVAGLKPYVENIWALLLKHCECAEEGTRNVVAECLGKLTLIDPETLLPRLKGYLISGSSYARSSVVTAVKFTISDHPQPIDPLLKNCIGDFLKTLEDPDLNVRRVALVTFNSAAHNKPSLIRDLLDSVLPHLYNETKVRKELIREVEMGPFKHTVDDGLDIRKAAFECMYTLLDSCLDRLDIFEFLNHVEDGLKDHYDIKMLTFLMLVRLSTLCPSAVLQRLDRLVEPLRATCTTKVKANSVKQEFEKQDELKRSAMRAVAALLTIPEAEKSPLMSEFQSQISSNPELAAIFESIQKDSSSTNLESMDTS

Reference: article doi:10.1101/384354
